# Results reported in PubChem BioAssay AID2517 (National Center for Advancing Translational Sciences (NCATS), 2010).
# Sequences of proteins named here, by UniProt entry; tags and fusion partners are left off.
# UniProt P27695, whole entry, looked up: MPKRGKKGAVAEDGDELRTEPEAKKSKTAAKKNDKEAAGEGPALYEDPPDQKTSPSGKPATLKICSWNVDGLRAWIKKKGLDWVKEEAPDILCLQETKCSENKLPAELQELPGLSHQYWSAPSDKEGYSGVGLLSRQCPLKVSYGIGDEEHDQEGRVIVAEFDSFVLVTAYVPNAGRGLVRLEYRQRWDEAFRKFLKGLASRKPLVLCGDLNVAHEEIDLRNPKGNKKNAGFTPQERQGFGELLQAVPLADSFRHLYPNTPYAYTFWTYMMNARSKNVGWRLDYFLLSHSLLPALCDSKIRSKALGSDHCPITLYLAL
# The campaign covered roughly 350,000 compounds. About 1,200 (0.34%) were called active. Calls come from the whole dose curve; as a rule, active = well fitted inhibition curve with a large enough effect; inconclusive = small, poorly fitted or top-dose-only effect; inactive = no such curve, though single readings can be large or run the other way. Inconclusive results, whose numbers are uncertain, are shown. A potency beside an inconclusive call is a rough fit, not a confirmed value.
# Target: DNA repair nuclease/redox regulator APEX1 (Homo sapiens) (UniProt P27695)
# Assay: qHTS Assay for Inhibitors of the Human Apurinic/apyrimidinic Endonuclease 1 (APE1); note: nearly all actives have a fitted effect of over 55% in size
# Conditions: recombinant APE1, TAMRA/BHQ-2 abasic DNA cleavage fluorescence; series mostly up to 65.8 µM
# Source text: The apurinic/apyrimidinic endonuclease APE1 is the primary mammalian enzyme responsible for the removal of abasic (or AP) sites in DNA and functions centrally in the base excision DNA repair (BER) pathway. […] Thus, targeting APE1 could improve the efficacy of current treatment paradigms by promoting selective sensitization or protection of diseased and normal cells, respectively.
# Inhibition of APE1 activity was screened by utilizing double-stranded short substrate containing tetrahydrofuran (THF) abasic site labeled with rhodamine-type fluorophore (TAMRA) at the 5'-end and with non-fluorescent Black Hole Quencher-2 (BHQ-2) at the opposing 3'-end. An increase in the fluorescence intensity due to incision of the abasic site by APE1 was used to measure the enzyme activity.
# NIH Chemical Genomics Center [NCGC]
# NIH Molecular Libraries Probe Centers Network [MLPCN]
# Assay Provider: David M. Wilson, III, National Institute on Aging, NIH
# Three uL of enzyme solution (0.75 nM APE1 final concentration) was dispensed to 1536-well Greiner black solid bottom plates. […] The plates were incubated for 15 min at room temperature, and then 1 uL of substrate solution (50 nM final concentration of TAMRA/BHQ-2) was added to start the reaction. The plates were immediately transferred into ViewLux High-throughput CCD imager (Perkin-Elmer) in order to measure the reaction progress in kinetic mode (three reads every 60 seconds) using 525 nm excitation and 598 nm emission fluorescence protocol. The fluorescence intensity difference between the third and the first time points was used to compute reaction progress. Results were normalized to buffer only columns and NSC13755 positive controls and negative control DMSO treated wells.
# Potency is the fitted concentration of half-maximal effect.
row,SMILES,Potency
1,COc1cc(/C=C2/C(=O)NN(c3ccc(Cl)cc3)C2=O)cc(Br)c1O,"inconclusive: 21.2 µM [inhibitor, partial curve]"
2,Cc1cc(C)cc(-n2cccc2/C=C2/C(=N)N3C(=NC2=O)SN=C3S(C)(=O)=O)c1,"inconclusive: 35.5 µM [inhibitor, partial curve]"
3,O=C(O)Cn1cc(/C=c2/sc3nc4ccccc4n3c2=O)c2ccccc21,"inconclusive: 39.8 µM [inhibitor, single point]"
